# This is one part of the list. Only hits are listed; about a third recur on repeated control peptides.
# The chains behind the UniProt entries cited, without tags or fusion partners.
# AARS2, Q5JTZ9, UniProt Q5JTZ9, whole entry: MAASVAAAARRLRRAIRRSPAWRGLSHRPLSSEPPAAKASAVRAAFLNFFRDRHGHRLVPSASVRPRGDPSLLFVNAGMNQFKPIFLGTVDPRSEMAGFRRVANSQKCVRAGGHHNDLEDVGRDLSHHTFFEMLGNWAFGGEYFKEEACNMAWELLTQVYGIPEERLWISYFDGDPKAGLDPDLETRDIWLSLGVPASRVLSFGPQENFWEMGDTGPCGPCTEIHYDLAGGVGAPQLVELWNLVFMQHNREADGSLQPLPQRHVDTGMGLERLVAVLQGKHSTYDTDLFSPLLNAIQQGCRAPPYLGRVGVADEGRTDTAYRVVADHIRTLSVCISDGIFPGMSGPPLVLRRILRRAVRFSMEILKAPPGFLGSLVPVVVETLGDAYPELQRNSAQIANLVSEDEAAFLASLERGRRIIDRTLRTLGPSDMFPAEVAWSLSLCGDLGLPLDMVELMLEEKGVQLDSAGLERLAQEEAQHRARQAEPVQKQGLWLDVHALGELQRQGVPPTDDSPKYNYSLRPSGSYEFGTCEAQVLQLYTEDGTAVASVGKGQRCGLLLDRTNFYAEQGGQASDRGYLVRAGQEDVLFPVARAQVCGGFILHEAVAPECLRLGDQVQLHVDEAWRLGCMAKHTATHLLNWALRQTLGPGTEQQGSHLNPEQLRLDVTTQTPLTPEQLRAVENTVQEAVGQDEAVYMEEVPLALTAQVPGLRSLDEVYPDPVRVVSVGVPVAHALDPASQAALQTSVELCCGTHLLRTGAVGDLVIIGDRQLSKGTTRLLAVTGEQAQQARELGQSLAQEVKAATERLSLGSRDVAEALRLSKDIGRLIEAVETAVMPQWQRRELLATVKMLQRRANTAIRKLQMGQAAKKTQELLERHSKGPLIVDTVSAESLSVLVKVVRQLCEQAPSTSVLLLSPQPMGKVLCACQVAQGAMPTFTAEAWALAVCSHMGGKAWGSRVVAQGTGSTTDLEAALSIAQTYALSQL
# DYNC1H1, Q14204, UniProt Q14204, whole entry: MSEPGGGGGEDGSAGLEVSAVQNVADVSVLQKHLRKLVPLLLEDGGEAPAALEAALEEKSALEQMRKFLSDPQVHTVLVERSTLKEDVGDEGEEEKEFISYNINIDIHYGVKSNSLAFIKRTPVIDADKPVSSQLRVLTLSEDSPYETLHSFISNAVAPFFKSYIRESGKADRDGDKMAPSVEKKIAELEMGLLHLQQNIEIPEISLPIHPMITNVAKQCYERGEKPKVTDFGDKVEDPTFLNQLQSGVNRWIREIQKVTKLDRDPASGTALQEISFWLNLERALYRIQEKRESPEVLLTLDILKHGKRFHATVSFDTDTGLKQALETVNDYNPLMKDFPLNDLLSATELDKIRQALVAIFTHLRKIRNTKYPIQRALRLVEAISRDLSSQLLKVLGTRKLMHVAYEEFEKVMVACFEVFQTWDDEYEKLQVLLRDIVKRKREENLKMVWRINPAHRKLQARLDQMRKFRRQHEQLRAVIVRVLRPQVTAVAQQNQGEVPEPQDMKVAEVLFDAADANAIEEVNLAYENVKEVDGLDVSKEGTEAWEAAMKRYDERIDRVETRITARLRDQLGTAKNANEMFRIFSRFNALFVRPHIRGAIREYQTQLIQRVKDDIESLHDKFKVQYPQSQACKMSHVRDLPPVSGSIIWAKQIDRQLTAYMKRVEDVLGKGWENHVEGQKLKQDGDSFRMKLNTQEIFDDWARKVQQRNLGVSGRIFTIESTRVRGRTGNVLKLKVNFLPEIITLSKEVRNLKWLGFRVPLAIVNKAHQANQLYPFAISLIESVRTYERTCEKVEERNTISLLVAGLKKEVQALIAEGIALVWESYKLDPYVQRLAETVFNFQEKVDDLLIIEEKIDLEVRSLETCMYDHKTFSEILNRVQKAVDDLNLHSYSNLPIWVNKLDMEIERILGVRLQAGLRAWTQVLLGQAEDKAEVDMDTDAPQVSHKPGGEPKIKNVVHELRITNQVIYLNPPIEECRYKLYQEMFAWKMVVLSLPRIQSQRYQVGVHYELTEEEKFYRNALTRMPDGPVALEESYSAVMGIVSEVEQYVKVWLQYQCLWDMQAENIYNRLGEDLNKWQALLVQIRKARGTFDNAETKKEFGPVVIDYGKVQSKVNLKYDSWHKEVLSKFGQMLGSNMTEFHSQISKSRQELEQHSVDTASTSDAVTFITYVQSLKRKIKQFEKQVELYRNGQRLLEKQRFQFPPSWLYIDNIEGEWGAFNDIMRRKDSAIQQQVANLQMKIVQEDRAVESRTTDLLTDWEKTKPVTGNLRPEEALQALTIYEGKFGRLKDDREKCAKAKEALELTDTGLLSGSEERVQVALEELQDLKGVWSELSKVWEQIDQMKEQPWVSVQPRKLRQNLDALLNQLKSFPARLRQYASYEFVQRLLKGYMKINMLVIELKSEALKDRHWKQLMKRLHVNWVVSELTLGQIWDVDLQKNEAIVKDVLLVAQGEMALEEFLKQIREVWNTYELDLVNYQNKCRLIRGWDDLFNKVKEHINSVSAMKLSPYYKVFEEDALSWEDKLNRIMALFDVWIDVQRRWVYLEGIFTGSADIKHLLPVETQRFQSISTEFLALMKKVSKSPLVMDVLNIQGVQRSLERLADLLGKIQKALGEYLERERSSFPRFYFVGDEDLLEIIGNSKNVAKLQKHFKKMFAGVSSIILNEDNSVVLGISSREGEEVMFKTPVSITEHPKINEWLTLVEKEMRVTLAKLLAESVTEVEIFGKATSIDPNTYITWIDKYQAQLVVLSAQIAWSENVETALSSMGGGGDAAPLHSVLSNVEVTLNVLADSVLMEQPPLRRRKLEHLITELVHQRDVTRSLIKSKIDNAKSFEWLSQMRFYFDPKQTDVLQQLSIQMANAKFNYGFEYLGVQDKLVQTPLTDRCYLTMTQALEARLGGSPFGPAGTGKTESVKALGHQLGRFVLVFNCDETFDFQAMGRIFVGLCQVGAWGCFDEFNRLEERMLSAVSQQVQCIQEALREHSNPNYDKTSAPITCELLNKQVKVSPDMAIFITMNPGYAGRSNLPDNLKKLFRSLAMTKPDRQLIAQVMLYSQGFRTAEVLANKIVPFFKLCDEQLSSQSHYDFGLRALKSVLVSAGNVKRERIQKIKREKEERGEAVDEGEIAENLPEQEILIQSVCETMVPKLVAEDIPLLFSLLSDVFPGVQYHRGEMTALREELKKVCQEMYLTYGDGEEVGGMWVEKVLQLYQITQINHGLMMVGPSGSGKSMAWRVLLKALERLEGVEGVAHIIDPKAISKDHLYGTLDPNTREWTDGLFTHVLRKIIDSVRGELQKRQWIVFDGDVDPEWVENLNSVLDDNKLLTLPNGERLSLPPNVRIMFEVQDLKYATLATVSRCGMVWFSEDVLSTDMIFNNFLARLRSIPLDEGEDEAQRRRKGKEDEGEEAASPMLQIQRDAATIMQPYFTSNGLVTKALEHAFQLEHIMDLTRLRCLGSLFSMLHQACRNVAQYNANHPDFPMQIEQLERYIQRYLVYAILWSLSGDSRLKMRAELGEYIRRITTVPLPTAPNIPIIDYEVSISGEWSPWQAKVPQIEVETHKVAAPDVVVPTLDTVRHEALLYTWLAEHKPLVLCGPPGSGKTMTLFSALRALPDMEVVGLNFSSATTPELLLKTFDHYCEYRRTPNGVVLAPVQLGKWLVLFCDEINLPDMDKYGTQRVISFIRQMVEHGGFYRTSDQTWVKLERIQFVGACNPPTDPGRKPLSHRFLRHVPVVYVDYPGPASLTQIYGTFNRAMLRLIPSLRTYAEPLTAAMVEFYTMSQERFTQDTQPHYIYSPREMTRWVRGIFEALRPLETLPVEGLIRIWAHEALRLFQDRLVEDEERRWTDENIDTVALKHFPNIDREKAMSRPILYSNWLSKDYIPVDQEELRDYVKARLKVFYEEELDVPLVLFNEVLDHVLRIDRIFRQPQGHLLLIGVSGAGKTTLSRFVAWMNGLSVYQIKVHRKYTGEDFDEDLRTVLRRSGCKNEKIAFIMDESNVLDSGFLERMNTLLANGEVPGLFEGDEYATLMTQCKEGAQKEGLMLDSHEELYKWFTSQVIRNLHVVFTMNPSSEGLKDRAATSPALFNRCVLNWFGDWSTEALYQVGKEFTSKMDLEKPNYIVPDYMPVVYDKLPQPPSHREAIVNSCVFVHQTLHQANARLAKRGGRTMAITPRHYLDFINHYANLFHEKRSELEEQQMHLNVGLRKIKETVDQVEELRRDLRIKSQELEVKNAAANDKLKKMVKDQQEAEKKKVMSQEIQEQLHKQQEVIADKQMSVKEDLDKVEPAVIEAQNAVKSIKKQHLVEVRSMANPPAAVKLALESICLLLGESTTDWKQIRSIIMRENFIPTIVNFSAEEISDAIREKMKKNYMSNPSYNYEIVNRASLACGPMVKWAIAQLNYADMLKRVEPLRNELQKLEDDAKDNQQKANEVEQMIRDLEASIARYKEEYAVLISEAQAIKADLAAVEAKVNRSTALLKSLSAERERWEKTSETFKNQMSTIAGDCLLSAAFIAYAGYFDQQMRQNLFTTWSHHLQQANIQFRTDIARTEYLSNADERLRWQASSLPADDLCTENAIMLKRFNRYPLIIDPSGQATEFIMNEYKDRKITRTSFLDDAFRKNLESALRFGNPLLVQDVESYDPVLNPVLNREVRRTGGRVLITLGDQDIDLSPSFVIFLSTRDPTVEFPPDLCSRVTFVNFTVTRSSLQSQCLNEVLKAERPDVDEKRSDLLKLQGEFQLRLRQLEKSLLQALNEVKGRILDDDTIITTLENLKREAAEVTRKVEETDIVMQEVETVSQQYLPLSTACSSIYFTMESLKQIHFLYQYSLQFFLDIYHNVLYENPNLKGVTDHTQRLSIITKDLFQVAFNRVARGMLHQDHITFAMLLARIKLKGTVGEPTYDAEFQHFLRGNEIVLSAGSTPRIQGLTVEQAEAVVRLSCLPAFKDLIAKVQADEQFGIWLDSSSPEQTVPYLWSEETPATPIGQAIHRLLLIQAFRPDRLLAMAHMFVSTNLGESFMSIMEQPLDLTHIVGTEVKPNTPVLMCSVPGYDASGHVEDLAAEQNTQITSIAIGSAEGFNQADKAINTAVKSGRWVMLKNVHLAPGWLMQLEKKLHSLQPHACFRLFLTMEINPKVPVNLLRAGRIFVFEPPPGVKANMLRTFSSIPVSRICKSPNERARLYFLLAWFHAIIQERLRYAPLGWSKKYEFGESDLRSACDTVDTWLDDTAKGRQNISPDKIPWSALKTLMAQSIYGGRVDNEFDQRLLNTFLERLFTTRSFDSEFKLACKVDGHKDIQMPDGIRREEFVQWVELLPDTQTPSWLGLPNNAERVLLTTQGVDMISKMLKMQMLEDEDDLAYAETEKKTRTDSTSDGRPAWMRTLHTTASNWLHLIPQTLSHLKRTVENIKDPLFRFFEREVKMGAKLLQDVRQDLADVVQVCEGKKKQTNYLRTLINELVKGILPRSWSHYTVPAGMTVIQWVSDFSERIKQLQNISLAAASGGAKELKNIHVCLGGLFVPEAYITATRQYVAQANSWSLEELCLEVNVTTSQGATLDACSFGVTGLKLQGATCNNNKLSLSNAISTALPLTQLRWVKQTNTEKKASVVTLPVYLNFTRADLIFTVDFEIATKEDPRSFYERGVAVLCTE
# DYNLRB1, Q9NP97, UniProt Q9NP97, whole entry: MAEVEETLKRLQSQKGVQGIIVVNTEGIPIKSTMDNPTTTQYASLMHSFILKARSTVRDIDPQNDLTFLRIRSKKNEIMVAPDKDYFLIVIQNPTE
# NDUFB5, O43674, UniProt O43674, whole entry: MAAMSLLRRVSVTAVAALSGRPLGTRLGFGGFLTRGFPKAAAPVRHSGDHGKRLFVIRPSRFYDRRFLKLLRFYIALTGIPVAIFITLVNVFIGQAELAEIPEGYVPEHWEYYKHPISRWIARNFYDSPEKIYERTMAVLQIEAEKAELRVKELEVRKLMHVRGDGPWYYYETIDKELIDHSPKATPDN
# ANAPC7, Q9UJX3, UniProt Q9UJX3, whole entry: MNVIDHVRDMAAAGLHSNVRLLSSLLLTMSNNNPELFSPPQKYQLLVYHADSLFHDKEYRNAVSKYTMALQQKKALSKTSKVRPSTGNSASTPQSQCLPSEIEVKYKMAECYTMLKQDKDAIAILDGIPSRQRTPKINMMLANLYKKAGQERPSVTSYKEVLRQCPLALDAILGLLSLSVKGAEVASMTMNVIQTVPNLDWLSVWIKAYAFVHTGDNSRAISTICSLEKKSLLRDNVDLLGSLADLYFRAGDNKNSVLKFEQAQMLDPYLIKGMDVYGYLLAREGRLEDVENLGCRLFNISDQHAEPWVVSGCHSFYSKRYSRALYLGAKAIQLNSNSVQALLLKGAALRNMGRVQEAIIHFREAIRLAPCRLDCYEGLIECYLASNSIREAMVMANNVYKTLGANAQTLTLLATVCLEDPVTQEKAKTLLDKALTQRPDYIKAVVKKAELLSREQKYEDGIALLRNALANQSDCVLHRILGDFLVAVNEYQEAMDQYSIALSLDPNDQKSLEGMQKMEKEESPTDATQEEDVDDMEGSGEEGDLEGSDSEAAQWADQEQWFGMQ
# Tests used:
# Test in all cases: PRISMA enrichment of interactor (LFQ) in peptide spot vs all other peptide spots (log2 fold change); higher = stronger / more specific binding of the interactor to the peptide
# [1] = molecular target: AAAS, Q9NRG9
# Method: (§1)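 PRISMA: 15-aa overlapping tiles (offset 8 aa) of 60 microproteins, plus SOS1/GLUT1 control peptides, were spot-synthesized on cellulose membranes in triplicate. Membranes were incubated with benzonase-treated HEK293T lysate, and bound proteins were identified by LC-MS/MS with LFQ. Enrichment is the log2 fold change of each protein in one spot versus all other spots. Only interactors passing the significance cutoff are listed.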
# [2] = molecular target: AARS2, Q5JTZ9
# Method: as §1
# [3] = molecular target: AQR, O60306
# Method: as §1
# [4] = molecular target: ATG4B, Q9Y4P1
# Method: as §1
# [5] = molecular target: C7orf50, Q9BRJ6
# Method: as §1
# [6] = molecular target: CDK9, P50750
# Method: as §1
# [7] = molecular target: CHCHD2, Q9Y6H1
# Method: as §1
# [8] = molecular target: CHCHD3, Q9NX63
# Method: as §1
# [9] = molecular target: COPS2, P61201
# Method: as §1
# [10] = molecular target: DDX6, P26196
# Method: as §1
# [11] = molecular target: DLGAP5, Q15398
# Method: as §1
# [12] = molecular target: DTYMK, P23919
# Method: as §1
# [13] = molecular target: DYNC1H1, Q14204
# Method: as §1
# [14] = molecular target: DYNLRB1, Q9NP97
# Method: as §1
# [15] = molecular target: EIF2B5, Q13144
# Method: as §1
# [16] = molecular target: EIF3F, O00303
# Method: as §1
# [17] = molecular target: ELP2, Q6IA86
# Method: as §1
# [18] = molecular target: FBXO45, P0C2W1
# Method: as §1
# [19] = molecular target: GEMIN5, Q8TEQ6
# Method: as §1
# [20] = molecular target: GNL3, Q9BVP2
# Method: as §1
# [21] = molecular target: HUWE1, Q7Z6Z7
# Method: as §1
# [22] = molecular target: MRPL39, Q9NYK5
# Method: as §1
# [23] = molecular target: MRPL58, Q14197
# Method: as §1
# [24] = molecular target: NCAPD3, P42695
# Method: as §1
# [25] = molecular target: NDUFB5, O43674
# Method: as §1
# [26] = molecular target: NPM3, O75607
# Method: as §1
# [27] = molecular target: NUP88, Q99567
# Method: as §1
# [28] = molecular target: ODF2, Q5BJF6
# Method: as §1
# [29] = substrate: PC, P11498
# Method: as §1
# [30] = molecular target: PDS5B, Q9NTI5
# Method: as §1
# [31] = molecular target: PGK1, P00558
# Method: as §1
# [32] = molecular target: PRDX5, P30044
# Method: as §1
# [33] = molecular target: PSMD8, P48556
# Method: as §1
# [34] = molecular target: RAB3GAP2, Q9H2M9
# Method: as §1
# [35] = molecular target: RRP9, O43818
# Method: as §1
# [36] = molecular target: SASS6, Q6UVJ0
# Method: as §1
# [37] = molecular target: SDE2, Q6IQ49
# Method: as §1
# [38] = molecular target: SMARCA4, P51532
# Method: as §1
# [39] = molecular target: TFB2M, Q9H5Q4
# Method: as §1
# [40] = molecular target: UMPS, P11172
# Method: as §1
# [41] = molecular target: UPF1, Q92900
# Method: as §1
# [42] = molecular target: URB1, O60287
# Method: as §1
# [43] = molecular target: YY1, P25490
# Method: as §1
# [44] = molecular target: ZNF771, Q7L3S4
# Method: as §1
# [45] = molecular target: hCG_1984214
# Method: as §1
# [46] = molecular target: ALDOB, P05062
# Method: as §1
# [47] = molecular target: ANAPC7, Q9UJX3
# Method: as §1
# [48] = molecular target: CCDC88A, Q3V6T2
# Method: as §1
# [49] = molecular target: CSNK2A2, P19784
# Method: as §1
# [50] = molecular target: DDOST, P39656
# Method: as §1
# [51] = molecular target: DEF8, Q6ZN54
# Method: as §1
# [52] = molecular target: DHX29, Q7Z478
# Method: as §1
# [53] = molecular target: DIEXF, Q68CQ4
# Method: as §1
# [54] = molecular target: DKC1, O60832
# Method: as §1
# [55] = molecular target: EI24, O14681
# Method: as §1
# [56] = molecular target: HP, P00738
# Method: as §1
# [57] = molecular target: LEO1, Q8WVC0
# Method: as §1
# [58] = molecular target: PDCD10, Q9BUL8
# Method: as §1
# [59] = molecular target: POP1, Q99575
# Method: as §1
# [60] = molecular target: RNF213, Q63HN8
# Method: as §1
# [61] = molecular target: RPUSD3, Q6P087
# Method: as §1
# [62] = molecular target: SETD7, Q8WTS6
# Method: as §1
# [63] = molecular target: SSR3, Q9UNL2
# Method: as §1
# [64] = molecular target: TMED2, Q15363
# Method: as §1
# [65] = molecular target: ZNF275, Q9NSD4
# Method: as §1
binder,measurement,setting,value
MAPWSREAVLSLYRA [MIEF-MP],PRISMA enrichment of interactor (log2),[1],5
same,PRISMA enrichment of interactor (log2),[2],5.68
same,PRISMA enrichment of interactor (log2),[3],5.62
same,PRISMA enrichment of interactor (log2),[4],5.06
same,PRISMA enrichment of interactor (log2),[5],4
same,PRISMA enrichment of interactor (log2),[6],4.44
same,PRISMA enrichment of interactor (log2),[7],5.12
same,PRISMA enrichment of interactor (log2),[8],4.52
same,PRISMA enrichment of interactor (log2),[9],7.16
same,PRISMA enrichment of interactor (log2),[10],5.28
same,PRISMA enrichment of interactor (log2),[11],4.45
same,PRISMA enrichment of interactor (log2),[12],4.78
same,PRISMA enrichment of interactor (log2),[13],4.74
same,PRISMA enrichment of interactor (log2),[14],5.42
same,PRISMA enrichment of interactor (log2),[15],4.49
same,PRISMA enrichment of interactor (log2),[16],4.9
same,PRISMA enrichment of interactor (log2),[17],3.97
same,PRISMA enrichment of interactor (log2),[18],4.23
same,PRISMA enrichment of interactor (log2),[19],4.45
same,PRISMA enrichment of interactor (log2),[20],5.05
same,PRISMA enrichment of interactor (log2),[21],4.57
same,PRISMA enrichment of interactor (log2),[22],5.31
same,PRISMA enrichment of interactor (log2),[23],4.45
same,PRISMA enrichment of interactor (log2),[24],4.58
same,PRISMA enrichment of interactor (log2),[25],4.72
same,PRISMA enrichment of interactor (log2),[26],3.84
same,PRISMA enrichment of interactor (log2),[27],4.85
same,PRISMA enrichment of interactor (log2),[28],7.22
same,PRISMA enrichment of interactor (log2),[29],6.82
same,PRISMA enrichment of interactor (log2),[30],4.9
same,PRISMA enrichment of interactor (log2),[31],3.99
same,PRISMA enrichment of interactor (log2),[32],4.41
same,PRISMA enrichment of interactor (log2),[33],9.59
same,PRISMA enrichment of interactor (log2),[34],4.26
same,PRISMA enrichment of interactor (log2),[35],5.39
same,PRISMA enrichment of interactor (log2),[36],4.53
same,PRISMA enrichment of interactor (log2),[37],3.87
same,PRISMA enrichment of interactor (log2),[38],4.8
same,PRISMA enrichment of interactor (log2),[39],4.59
same,PRISMA enrichment of interactor (log2),[40],5.69
same,PRISMA enrichment of interactor (log2),[41],4.19
same,PRISMA enrichment of interactor (log2),[42],6.23
same,PRISMA enrichment of interactor (log2),[43],6.62
same,PRISMA enrichment of interactor (log2),[44],4.92
same,PRISMA enrichment of interactor (log2),[45],4.16
NVTGLNTILHFRKRT [LINC01560],PRISMA enrichment of interactor (log2),[1],5.83
same,PRISMA enrichment of interactor (log2),[46],7.71
same,PRISMA enrichment of interactor (log2),[47],9.42
same,PRISMA enrichment of interactor (log2),[48],4.39
same,PRISMA enrichment of interactor (log2),[49],4.1
same,PRISMA enrichment of interactor (log2),[50],6.28
same,PRISMA enrichment of interactor (log2),[51],4.44
same,PRISMA enrichment of interactor (log2),[52],3.89
same,PRISMA enrichment of interactor (log2),[53],6.14
same,PRISMA enrichment of interactor (log2),[54],10.8
same,PRISMA enrichment of interactor (log2),[55],4.26
same,PRISMA enrichment of interactor (log2),[56],4.91
same,PRISMA enrichment of interactor (log2),[57],6.32
same,PRISMA enrichment of interactor (log2),[58],5.76
same,PRISMA enrichment of interactor (log2),[59],6.26
same,PRISMA enrichment of interactor (log2),[60],5.73
same,PRISMA enrichment of interactor (log2),[61],7.96
same,PRISMA enrichment of interactor (log2),[62],6.78
same,PRISMA enrichment of interactor (log2),[63],4.65
same,PRISMA enrichment of interactor (log2),[64],6.37
same,PRISMA enrichment of interactor (log2),[65],3.9

# 3 records drawn at random from those above, as already listed:
binder,measurement,setting,value
NVTGLNTILHFRKRT [LINC01560],PRISMA enrichment of interactor (log2),[59],6.26
MAPWSREAVLSLYRA [MIEF-MP],PRISMA enrichment of interactor (log2),[21],4.57
NVTGLNTILHFRKRT [LINC01560],PRISMA enrichment of interactor (log2),[64],6.37
